Data from publication PMC4489722.
Results are given in words; binding and its absence hold for the method and conditions named. In cells and extracts the contact can be indirect. Some entries that bind do so weakly or less than the wild type.

Biological target: STING (human (endogenous in HMVEC-d, HFF)), Q86WV6
Experiment: co-IP; endogenous proteins, HFF whole cell lysates in NETN buffer, HSV-1 infected (1 PFU/cell; 30 min and 6 h p.i.); IP anti-STING, western blot for IFI16 and IRF-3
Details: remark: other sources report otherwise

binding: binds
B1: IRF-3, Q14653 1-427 (protein)
chain: MGTPKPRILPWLVSQLDLGQLEGVAWVNKSRTRFRIPWKHGLRQDAQQEDFGIFQAWAEATGAYVPGRDKPDLPTWKRNFRSALNRKEGLRLAEDRSKDPHDPHKIYEFVNSGVGDFSQPDTSPDTNGGGSTSDTQEDILDELLGNMVLAPLPDPGPPSLAVAPEPCPQPLRSPSLDNPTPFPNLGPSENPLKRLLVPGEEWEFEVTAFYRGRQVFQQTISCPEGLRLVGSEVGDRTLPGWPVTLPDPGMSLTDRGVMSYVRHVLSCLGGGLALWRAGQWLWAQRLGHCHTYWAVSEELLPNSGHGPDGEVPKDKEGGVFDLGPFIVDLITFTEGSGRSPRYALWFCVGESWPQDQPWTKRLVMVKVVPTCLRALVEMARVGGASSLENTVDLHISNSHPLSLTSDQYKAYLQDLVEGMDFQGPGES
